Positions count from the first letter of the chain named. These are yes or no findings as the source states them, for the method shown. For some assays here: Binding seen in cells or lysates may run through a third protein. Some binding calls cover weakened binding; strength is not graded here. For some assays here: Sequences can lack the tags named with a protein.

Chains of the proteins cited; added tags and fusions are not shown. Lines headed by an entry give the natural chain unless they say otherwise; changes in a name come on top. A line that says so, or that is headed by a name, gives the form on record, which may keep a tag or linker.
UniProt Q9UPT5: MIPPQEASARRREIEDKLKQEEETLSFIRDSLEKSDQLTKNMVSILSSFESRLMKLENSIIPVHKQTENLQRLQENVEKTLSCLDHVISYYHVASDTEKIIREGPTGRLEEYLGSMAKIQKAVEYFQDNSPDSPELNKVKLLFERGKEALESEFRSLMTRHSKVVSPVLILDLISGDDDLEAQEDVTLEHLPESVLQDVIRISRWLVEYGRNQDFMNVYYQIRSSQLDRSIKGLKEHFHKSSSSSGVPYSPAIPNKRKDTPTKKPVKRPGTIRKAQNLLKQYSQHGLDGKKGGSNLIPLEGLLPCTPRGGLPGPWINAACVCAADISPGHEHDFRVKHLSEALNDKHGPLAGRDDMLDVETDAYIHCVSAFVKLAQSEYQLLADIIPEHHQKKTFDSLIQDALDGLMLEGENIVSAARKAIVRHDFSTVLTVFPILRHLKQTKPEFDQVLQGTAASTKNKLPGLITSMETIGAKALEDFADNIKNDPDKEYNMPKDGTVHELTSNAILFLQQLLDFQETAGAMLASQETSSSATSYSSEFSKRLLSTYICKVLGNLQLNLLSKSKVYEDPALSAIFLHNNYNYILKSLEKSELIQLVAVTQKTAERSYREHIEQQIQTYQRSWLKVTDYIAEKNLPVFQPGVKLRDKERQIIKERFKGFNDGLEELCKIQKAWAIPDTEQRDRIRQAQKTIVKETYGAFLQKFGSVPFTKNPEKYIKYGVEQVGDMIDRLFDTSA
UniProt P19658: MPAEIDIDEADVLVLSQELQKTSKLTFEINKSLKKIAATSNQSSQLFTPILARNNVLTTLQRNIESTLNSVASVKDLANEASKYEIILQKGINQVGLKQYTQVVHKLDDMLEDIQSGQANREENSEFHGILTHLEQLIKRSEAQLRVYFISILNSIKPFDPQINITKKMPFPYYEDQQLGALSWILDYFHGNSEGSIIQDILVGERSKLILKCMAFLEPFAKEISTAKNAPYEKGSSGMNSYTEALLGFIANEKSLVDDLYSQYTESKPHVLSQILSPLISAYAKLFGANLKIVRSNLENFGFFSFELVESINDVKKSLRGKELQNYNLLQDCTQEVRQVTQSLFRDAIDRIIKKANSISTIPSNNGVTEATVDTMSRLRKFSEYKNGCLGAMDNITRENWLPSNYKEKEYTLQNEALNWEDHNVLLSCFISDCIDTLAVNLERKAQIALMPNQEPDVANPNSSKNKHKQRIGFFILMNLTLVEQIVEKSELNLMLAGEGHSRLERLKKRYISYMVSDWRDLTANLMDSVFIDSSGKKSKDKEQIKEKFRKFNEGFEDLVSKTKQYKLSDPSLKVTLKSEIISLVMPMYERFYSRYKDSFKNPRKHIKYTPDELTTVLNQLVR
full length endogenous GIV (Q3V6T2-3, form named): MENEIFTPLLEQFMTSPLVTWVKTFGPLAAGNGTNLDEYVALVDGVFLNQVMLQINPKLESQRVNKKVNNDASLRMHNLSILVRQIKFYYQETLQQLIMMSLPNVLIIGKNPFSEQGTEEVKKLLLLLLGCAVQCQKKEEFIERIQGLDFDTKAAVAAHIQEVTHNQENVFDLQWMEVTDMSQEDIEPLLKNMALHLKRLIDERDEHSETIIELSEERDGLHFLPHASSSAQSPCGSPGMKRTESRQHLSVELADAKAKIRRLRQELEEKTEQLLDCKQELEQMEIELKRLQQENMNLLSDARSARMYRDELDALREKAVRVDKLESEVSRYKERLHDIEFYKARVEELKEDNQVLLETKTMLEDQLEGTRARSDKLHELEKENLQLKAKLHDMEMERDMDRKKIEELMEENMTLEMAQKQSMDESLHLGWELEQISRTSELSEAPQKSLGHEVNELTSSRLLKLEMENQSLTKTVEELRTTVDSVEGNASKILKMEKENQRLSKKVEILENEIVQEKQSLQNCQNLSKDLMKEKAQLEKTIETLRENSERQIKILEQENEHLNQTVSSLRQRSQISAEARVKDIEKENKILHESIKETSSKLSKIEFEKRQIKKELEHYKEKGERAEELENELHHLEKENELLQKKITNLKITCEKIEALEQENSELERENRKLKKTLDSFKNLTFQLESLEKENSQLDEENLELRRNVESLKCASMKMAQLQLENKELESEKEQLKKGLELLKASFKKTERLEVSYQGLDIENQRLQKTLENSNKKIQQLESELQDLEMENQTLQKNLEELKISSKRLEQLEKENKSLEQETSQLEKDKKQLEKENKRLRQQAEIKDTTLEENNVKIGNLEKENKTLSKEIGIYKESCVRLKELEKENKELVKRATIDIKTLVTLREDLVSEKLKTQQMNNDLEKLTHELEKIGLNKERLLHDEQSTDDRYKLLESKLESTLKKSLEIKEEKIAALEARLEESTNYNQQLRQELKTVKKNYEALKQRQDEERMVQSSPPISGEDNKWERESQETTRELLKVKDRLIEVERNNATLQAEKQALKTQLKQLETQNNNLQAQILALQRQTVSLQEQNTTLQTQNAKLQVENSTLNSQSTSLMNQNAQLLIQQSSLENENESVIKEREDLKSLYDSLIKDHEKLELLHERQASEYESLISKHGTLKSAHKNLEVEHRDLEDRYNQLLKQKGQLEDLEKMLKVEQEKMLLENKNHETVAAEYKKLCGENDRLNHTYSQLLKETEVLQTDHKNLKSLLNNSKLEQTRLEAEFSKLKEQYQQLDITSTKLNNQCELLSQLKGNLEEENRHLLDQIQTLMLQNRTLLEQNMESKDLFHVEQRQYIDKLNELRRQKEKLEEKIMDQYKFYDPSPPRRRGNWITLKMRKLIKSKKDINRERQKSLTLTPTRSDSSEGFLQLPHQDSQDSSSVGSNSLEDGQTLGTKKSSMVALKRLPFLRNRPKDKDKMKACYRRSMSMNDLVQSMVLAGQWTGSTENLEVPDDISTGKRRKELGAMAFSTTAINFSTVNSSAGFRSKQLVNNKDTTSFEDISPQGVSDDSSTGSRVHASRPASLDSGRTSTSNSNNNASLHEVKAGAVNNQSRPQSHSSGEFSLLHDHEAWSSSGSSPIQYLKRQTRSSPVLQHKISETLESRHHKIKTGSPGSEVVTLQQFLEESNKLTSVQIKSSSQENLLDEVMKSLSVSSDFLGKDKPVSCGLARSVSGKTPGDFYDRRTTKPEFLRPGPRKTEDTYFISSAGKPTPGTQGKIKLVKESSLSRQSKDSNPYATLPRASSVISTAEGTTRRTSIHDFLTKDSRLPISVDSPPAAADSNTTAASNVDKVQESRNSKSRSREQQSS

Assay in all cases: pull-down
In test [1] the target is T1, GST-Bem1p F321A (yeast) (UniProt P29366).
T1 sequence: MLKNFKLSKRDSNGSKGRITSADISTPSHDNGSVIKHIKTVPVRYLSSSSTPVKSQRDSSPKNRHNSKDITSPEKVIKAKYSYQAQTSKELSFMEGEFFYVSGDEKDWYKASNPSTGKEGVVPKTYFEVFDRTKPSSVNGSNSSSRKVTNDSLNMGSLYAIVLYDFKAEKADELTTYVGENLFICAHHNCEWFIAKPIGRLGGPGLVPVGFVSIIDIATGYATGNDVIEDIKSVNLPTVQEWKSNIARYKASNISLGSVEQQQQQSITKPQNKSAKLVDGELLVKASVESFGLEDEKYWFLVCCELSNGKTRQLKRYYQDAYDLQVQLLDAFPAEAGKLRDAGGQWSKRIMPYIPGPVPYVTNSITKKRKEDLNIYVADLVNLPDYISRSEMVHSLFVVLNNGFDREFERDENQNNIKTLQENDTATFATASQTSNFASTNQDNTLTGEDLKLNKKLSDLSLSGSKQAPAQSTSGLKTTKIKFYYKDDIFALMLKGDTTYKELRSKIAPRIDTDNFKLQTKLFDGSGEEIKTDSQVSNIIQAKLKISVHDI

In test [2] the target is T2, GST-Bem1p WT (yeast) (UniProt P29366).
T2 sequence: T1 sequence with A321F

Test [3] has as its target GST-hExo70 (human Exo70) (human, UniProt Q9UPT5 1-735).
Test [4] has as its target GST-Exo70p (yeast Exo70) (yeast, UniProt P19658 1-623).

Regarding His-Exo70p (from UniProt P19658 1-623), the binding result in test [1] was “no binding”; in test [2] it was “binds”. For the molecule “full length endogenous GIV (from UniProt Q3V6T2-3 1-1870)”, the binding entry in test [3] and in test [4] was “binds” each time.

B1: His-Bem1p (natural protein, yeast, UniProt P29366 1-551, looked up)
chain: T1 sequence with A321F
As for B1, in test [3], the binding entry is on record as “binds”.

The values are drawn from paper doi:10.1101/870071 (bioRxiv, 2019).
